Results are given in words; binding and its absence hold for the method and conditions named. In cells and extracts the contact can be indirect. A yes stands for co-enrichment or nearness to the bait. Other partners may have been found.
Columns and labels:
Experiment in all cases: affinity purification with mass spectrometry
[1] = target: CDK7 (human (endogenous in HeLa)) (UniProt P50613)
[2] = target: CSK (human (endogenous in Jurkat, FOCUS and other cancer cell lines)) (UniProt P41240)
[3] = target: adapter-associated kinase 1 (AAK1) (human (endogenous in FOCUS)) (UniProt Q2M2I8)
[4] = target: CDK1 (human (endogenous in HeLa)) (UniProt P06493)
[5] = target: HCK (human (endogenous in FOCUS)) (UniProt P08631)
[6] = target: CDK10 (human (endogenous in cancer cell lines)) (UniProt Q15131)

The chains behind the UniProt entries cited, without tags or fusion partners.
UniProt P41240: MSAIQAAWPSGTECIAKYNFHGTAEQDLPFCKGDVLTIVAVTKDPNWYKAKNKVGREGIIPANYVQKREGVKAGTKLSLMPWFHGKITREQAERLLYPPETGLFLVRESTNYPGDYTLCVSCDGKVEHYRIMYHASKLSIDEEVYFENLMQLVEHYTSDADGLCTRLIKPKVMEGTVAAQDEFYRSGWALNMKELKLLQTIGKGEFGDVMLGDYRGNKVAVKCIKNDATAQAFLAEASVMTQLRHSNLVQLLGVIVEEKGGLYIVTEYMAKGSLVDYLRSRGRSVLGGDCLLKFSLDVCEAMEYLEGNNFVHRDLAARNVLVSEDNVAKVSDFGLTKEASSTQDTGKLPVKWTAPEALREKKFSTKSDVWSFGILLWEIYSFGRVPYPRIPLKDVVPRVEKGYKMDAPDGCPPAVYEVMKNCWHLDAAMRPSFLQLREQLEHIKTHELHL
UniProt P08631: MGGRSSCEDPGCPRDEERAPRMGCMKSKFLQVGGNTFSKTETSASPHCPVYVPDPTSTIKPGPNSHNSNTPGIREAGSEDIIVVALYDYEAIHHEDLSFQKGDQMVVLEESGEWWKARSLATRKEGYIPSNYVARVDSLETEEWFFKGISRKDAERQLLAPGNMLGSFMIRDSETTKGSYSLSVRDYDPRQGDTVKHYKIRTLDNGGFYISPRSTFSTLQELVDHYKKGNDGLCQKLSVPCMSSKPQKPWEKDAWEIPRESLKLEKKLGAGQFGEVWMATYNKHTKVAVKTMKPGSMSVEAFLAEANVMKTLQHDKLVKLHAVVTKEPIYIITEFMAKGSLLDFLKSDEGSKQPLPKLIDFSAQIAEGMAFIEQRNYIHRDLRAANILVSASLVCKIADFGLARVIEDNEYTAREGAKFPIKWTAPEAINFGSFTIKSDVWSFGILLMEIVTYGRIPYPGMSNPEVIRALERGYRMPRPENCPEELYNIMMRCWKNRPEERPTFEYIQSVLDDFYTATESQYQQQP
UniProt Q15131: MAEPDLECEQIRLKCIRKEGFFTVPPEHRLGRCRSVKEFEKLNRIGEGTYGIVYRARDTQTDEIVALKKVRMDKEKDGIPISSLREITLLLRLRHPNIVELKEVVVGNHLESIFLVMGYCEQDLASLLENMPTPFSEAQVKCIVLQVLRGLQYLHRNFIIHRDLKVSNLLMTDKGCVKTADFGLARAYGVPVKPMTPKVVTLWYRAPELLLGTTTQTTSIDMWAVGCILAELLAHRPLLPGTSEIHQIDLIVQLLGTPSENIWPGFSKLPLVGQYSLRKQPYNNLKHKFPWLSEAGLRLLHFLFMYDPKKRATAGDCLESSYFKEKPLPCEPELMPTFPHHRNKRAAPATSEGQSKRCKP
UniProt P19447: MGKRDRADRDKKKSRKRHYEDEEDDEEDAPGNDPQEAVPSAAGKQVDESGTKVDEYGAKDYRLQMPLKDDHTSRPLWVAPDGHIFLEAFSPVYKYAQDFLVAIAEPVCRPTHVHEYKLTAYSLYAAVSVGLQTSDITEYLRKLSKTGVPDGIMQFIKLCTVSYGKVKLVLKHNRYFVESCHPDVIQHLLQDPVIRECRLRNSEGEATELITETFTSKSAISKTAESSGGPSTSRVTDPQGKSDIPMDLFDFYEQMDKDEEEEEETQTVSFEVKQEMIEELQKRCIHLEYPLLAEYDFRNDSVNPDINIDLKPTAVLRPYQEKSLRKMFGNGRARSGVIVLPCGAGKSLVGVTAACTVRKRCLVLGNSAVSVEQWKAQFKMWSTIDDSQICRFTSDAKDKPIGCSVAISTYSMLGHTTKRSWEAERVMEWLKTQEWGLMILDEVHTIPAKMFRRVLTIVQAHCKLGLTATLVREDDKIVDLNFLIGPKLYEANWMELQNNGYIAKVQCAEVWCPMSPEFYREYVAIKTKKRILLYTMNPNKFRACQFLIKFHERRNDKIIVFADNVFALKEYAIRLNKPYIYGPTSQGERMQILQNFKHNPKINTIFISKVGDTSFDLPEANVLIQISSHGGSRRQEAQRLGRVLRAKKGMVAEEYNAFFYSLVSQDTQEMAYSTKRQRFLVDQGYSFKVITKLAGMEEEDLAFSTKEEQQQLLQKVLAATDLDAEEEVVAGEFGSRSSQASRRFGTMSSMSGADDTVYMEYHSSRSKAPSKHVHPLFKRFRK
UniProt Q15311: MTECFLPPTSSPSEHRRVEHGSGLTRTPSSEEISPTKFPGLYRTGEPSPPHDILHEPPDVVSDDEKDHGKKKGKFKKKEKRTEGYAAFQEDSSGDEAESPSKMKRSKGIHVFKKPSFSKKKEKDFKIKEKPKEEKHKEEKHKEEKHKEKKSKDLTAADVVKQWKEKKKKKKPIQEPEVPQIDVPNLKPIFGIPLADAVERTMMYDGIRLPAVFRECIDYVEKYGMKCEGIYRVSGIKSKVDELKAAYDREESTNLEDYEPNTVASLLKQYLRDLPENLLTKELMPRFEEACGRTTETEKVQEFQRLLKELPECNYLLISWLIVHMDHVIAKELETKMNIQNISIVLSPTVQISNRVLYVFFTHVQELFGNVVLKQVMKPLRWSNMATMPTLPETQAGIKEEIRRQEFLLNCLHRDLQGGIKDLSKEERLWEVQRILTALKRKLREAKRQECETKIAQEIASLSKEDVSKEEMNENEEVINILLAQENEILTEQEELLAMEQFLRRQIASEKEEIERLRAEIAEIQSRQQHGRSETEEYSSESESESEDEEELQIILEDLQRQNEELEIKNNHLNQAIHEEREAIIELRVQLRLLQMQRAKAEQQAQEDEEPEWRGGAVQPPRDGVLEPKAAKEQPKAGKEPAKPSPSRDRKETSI
UniProt P78396: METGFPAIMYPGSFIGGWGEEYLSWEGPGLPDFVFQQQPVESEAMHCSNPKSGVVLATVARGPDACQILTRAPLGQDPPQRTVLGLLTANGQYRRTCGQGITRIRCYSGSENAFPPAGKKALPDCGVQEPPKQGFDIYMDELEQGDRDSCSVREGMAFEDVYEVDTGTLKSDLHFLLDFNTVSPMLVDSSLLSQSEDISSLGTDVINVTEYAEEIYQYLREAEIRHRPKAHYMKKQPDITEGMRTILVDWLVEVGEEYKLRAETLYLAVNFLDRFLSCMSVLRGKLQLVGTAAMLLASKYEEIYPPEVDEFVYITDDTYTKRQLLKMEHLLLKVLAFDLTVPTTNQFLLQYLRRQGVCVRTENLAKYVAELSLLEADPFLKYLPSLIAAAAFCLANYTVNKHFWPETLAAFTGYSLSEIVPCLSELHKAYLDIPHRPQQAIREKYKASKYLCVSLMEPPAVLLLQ
UniProt P09382: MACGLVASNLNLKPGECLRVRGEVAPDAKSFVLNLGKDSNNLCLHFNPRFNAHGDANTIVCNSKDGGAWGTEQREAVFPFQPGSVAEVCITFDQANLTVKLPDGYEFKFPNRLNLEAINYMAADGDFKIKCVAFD
UniProt P49023: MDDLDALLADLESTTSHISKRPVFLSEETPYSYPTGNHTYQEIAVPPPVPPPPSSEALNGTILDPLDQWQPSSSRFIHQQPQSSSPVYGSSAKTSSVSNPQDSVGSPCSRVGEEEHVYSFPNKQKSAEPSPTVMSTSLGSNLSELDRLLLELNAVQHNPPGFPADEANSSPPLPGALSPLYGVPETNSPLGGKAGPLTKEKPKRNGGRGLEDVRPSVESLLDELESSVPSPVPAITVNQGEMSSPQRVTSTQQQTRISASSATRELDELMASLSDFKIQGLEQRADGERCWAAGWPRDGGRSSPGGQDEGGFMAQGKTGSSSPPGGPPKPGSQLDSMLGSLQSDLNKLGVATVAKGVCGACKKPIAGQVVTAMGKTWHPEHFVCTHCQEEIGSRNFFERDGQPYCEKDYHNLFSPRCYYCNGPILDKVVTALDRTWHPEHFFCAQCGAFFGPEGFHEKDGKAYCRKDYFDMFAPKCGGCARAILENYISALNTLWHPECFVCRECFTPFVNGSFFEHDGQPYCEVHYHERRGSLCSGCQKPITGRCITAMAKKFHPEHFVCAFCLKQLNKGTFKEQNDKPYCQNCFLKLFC
UniProt Q08999: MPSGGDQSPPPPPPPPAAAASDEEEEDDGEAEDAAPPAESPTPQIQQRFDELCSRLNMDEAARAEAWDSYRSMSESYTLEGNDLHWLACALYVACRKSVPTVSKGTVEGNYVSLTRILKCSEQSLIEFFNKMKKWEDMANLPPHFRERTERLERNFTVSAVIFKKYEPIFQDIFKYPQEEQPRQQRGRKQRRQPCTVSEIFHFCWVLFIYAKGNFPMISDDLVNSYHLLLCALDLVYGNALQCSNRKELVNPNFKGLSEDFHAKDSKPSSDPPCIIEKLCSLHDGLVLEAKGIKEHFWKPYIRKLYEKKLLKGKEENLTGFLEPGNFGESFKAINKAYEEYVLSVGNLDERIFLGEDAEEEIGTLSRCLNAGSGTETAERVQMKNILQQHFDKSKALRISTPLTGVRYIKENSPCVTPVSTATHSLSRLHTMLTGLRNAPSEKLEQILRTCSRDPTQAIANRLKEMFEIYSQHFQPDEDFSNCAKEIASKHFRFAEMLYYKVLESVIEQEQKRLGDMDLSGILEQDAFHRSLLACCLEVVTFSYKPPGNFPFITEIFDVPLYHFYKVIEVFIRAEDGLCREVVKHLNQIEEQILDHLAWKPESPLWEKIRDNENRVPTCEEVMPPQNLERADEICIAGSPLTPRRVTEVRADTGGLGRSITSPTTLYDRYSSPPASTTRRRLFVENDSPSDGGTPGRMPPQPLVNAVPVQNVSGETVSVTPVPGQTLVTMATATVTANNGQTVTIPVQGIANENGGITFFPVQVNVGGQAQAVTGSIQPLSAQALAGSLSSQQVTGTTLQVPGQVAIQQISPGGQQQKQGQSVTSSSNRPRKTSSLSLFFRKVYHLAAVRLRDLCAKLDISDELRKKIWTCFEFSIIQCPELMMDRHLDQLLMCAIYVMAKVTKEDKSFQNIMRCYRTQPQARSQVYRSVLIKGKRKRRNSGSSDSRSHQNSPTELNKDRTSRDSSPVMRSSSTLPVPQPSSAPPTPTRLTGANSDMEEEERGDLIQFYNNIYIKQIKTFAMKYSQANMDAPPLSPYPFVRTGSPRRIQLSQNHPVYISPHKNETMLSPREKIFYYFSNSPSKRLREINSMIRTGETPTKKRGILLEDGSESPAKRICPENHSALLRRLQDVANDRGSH
UniProt Q68CZ2: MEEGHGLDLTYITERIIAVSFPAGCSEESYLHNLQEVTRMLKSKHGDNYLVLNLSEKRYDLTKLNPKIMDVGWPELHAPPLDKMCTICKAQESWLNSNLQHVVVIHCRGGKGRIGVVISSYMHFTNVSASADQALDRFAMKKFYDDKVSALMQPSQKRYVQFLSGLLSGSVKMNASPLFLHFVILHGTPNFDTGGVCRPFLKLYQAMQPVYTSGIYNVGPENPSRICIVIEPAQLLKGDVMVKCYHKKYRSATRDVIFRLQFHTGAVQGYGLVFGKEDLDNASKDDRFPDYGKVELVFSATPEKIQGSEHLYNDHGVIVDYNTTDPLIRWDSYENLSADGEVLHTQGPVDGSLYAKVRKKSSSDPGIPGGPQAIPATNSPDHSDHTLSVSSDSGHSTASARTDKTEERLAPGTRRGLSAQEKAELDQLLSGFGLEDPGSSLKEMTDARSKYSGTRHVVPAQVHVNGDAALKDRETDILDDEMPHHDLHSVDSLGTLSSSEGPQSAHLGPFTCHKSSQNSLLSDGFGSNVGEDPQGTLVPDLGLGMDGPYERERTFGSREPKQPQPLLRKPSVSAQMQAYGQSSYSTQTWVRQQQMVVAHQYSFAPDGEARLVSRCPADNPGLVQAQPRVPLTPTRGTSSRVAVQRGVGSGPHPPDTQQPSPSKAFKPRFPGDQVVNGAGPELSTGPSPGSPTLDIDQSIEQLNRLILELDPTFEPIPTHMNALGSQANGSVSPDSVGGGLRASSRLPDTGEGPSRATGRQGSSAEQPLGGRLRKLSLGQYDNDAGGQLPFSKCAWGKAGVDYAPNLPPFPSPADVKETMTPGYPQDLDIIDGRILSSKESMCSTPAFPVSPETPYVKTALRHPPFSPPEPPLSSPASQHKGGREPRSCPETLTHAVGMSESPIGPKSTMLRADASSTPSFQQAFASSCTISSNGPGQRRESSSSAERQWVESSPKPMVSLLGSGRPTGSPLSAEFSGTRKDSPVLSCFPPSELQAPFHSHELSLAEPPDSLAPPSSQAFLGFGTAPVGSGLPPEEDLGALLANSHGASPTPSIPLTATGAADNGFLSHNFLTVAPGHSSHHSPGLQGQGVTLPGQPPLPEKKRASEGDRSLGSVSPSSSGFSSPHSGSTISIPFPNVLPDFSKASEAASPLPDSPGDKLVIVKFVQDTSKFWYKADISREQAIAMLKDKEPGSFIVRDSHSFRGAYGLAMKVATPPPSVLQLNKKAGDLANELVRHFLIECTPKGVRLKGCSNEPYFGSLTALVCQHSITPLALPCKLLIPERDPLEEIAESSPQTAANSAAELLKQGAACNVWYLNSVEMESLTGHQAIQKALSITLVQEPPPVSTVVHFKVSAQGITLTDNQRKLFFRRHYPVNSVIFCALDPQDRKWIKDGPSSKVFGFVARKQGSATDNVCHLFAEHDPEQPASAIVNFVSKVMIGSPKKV

ERCC3 (from UniProt P19447 1-782) was tested, and the binding [1] was “binds”.

For GTF2H1 (from UniProt P32780 1-548), the binding [1] was “binds”.

For PAG1 (from UniProt Q9NWQ8 1-432), the binding [2] was “binds”.

For RALBP1 (from UniProt Q15311 1-655), the binding [3] was “binds”.

For UBASH3B (from UniProt Q8TF42 1-649), the binding [2] was “binds”.

With cyclin A1 (from UniProt P78396 1-465) the binding [4] was “binds”.

For cyclin B2 (from UniProt O95067 1-398), the binding [4] was “binds”.

“galectin-1 (LGALS1) (from UniProt P09382 1-135)” was tested, and the binding [5] was “binds”.

With “paxillin (PXN) (from UniProt P49023 1-591)” the binding [2] was “binds”.

For “retinoblastoma-like protein 2 (RBL2) (from UniProt Q08999 1-1139)”, the binding [6] was “binds”.

“tensin 1 (TNS1) (from UniProt Q9HBL0 1-1839)” was tested, and the binding [2] was “binds”.

“tensin-3 (TNS3) (from UniProt Q68CZ2 1-1445)” was tested, and the binding [2] was “binds”.

In the case of “transcription factor Dp-1 (TFDP1) (from UniProt Q14186 1-410)”, the binding [6] is reported as “binds”.
